PubChem BioAssay AID1259405 | NCATS | 2018

Aim: 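Knock-downs that lift recombinant protein yield in hamster ovary cells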 (primary screen)
System: Chinese hamster CHO-K1 ovary cells with stable secreted eGFP expression
Knock-down reagent: single siRNA against mouse genes, 0.8 pmol siRNA per well (2 µl of 400 nM stock)
Timing: 3 days
Measurement: 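Percent of the per-plate non-targeting control median for intracellular GFP per well by laser scanning cytometry and for cell viability by ATP luminescence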
Reading the numbers: GFP, % of control: higher = more GFP per well, higher productivity; viability (ATP), % of control: higher = more viable cells (more ATP)
Hit rule: 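a knock-down is called active if GFP reaches 120% or more of non-targeting control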
Shown is a random part of about 50,000 deposited reagents. In the full data, about 4,000 (8%) are marked active. 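Mouse siRNA library applied to hamster cells; one well for each siRNA.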 Reagents against one gene are numbered here.

target,reagent no.,"GFP, % of control","viability (ATP), % of control",Call
Dmrtc2,1,98.1,101,inactive
Dmrtc2,2,92,69.4,inactive
Dmrtc2,3,90.8,71.3,inactive
Arhgef25,1,136,44.5,active
Arhgef25,2,76.8,77,inactive
Arhgef25,3,83.3,89.1,inactive
Stard3,1,80.1,83.5,inactive
Stard3,2,73.4,62.4,inactive
Stard3,3,67.4,66.5,inactive
Csf1,1,60,62.5,inactive
Csf1,2,35.3,67,inactive
Csf1,3,94.7,61.9,inactive
Plaa,1,66.6,50.6,inactive
Plaa,2,70.5,76.4,inactive
Plaa,3,82.8,115,inactive
Shc3,1,109,68.9,inactive
Shc3,2,63.3,74.5,inactive
Shc3,3,117,78.4,inactive
Nectin4,1,84,94.1,inactive
Nectin4,2,78.8,66.9,inactive
Tnnt1,1,95.4,81.4,inactive
Tnnt1,2,73.5,69.2,inactive
Tnnt1,3,60.6,64,inactive
Mga,1,96.5,101,inactive
Mga,2,63.4,59.3,inactive
Mga,3,99,102,inactive
Dapp1,1,60.5,49.7,inactive
Dapp1,2,81,75.2,inactive
Dapp1,3,92,63.1,inactive
4930503L19Rik,1,81.4,65.9,inactive
4930503L19Rik,2,70.4,75.5,inactive
4930503L19Rik,3,68.2,89.9,inactive

Active calls, of those listed so far:
target,reagent no.,"GFP, % of control","viability (ATP), % of control",Call
Arhgef25,1,136,44.5,active

The list goes on.
target,reagent no.,"GFP, % of control","viability (ATP), % of control",Call
Magea2,1,49.4,36,inactive
Magea2,2,79.6,57.1,inactive
Magea2,3,91,92.8,inactive
Ptgir,1,172,85.2,active
Ptgir,2,86,74.1,inactive
Ptgir,3,109,90,inactive
1110004F10Rik,1,80.2,59.3,inactive
1110004F10Rik,2,57.6,69.1,inactive
1110004F10Rik,3,73.5,48.8,inactive
Alad,1,97.7,112,inactive
Alad,2,64,73,inactive
Zc3h14,1,59.4,51,inactive
Zc3h14,2,21.1,26.9,inactive
Zc3h14,3,68.8,74.1,inactive
Dbndd1,1,98.1,54.2,inactive
Dbndd1,2,71.2,93.6,inactive
Dbndd1,3,94.1,60.1,inactive
Ccdc142,1,71.4,70.6,inactive
Ccdc142,2,28.9,29.4,inactive
Ccdc142,3,64.2,81.3,inactive
Vxn,1,143,97,active
Vxn,2,53.7,67.3,inactive
Vxn,3,80.5,58.5,inactive
Mmgt2,1,51.3,61,inactive
Mmgt2,2,84.3,87.4,inactive
Mmgt2,3,91.7,103,inactive
